# No constants are given. Whether binding was seen depends on the method and setting. Binding calls can cover weak binding; strength is not graded here. For some assays here: Binding seen in cells or lysates may run through a third protein.
# B1: IFT43 (protein, UniProt A8HYP5 1-272)
# chain: MDDDAPKAAPKAGRRAARTANTWGDDSAAPPEPQKGGFGLDSGFGGGGGSPRGNAFGAEDSAPPKHVASTNFAPSGDDEPAPAPSRQRTGDASGDRPSRGGAPPSRPPPAEILGEDSKKFVGVSRRKQEQLARGDDEVSRKNLKYETLTAGVDGIMEIPELEEEGREDLSNIVAEAPKVRTNKVQGMEELEEDMHYKLPAMDDRDIDLSLLTAVLCSSEQVAEAEDPWDPDIVLTEVASAINAEREKAEGGEAPDDMGGMRDEQGMPMPIKL
# What was measured:
# [1] = target: T1, IFT43 (endogenous) (Chlamydomonas reinhardtii (endogenous in strain 21gr)) (UniProt A8HYP5); assay: co-IP; anti-IFT43 antibody (15 μl) on lysates of 1x10^9 cells in buffer A-IP (20 mM HEPES pH 7.2, 150 mM NaCl, 5 mM MgCl2); wild type cells, also ift139, ift140 and other IFT-A mutant cells; immunoblots with anti-IFT-A antibodies
# T1 sequence: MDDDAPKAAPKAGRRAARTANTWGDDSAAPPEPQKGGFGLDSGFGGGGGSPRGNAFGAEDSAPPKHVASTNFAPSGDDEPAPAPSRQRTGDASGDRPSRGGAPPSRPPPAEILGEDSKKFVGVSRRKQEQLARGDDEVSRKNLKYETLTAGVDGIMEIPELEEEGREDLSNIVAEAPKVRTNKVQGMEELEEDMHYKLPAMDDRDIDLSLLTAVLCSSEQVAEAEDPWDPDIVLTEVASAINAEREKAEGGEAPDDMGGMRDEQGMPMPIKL
# IFT121 (Chlamydomonas) = assay: two-hybrid; pGADT7 and pGBKT7 fusions, all pair combinations co-transformed into yeast AH109; growth at 30°C for 2-3 days on SD -Leu -Trp -His -Ade; empty vectors as control
Molecule,binding [1],binding (IFT121 (Chlamydomonas))
IFT121 (endogenous),binds,
B1,,binds

# From article PMC5336300
